Test results from patent US20090318465A1, “METHOD FOR IDENTIFYING COMPOUNDS THAT ACT AS INSULIN-SENSITIZERS” (priority 2006, published 2009).
At least one compound was matched to its structure with a doubt left. Some entries share one result that the patent states for a list of compounds.

Tests used:
[1] = system: dexamethasone treated insulin resistant 3T3-L1 adipocytes; experiment: Insulin resistance assay (IR assay), 14C-2-deoxyglucose uptake; type: cell-based, mouse; settings: for fold increase in glucose uptake: insulin resistant adipocytes, FIG. 2
Description: A suitable insulin resistance assay includes screening of compounds which act as insulin-sensitizers using chronically dexamethasone treated 3T3-L1 adipocytes as an in vitro model. This is a known model for studying insulin signaling and insulin resistance. Chronically dexamethasone treated 3T3-L1 adipocytes serve as a valid in vitro model of insulin resistance resembling diabetes patients.
In an embodiment, the method according to the present invention includes screening compounds identified as active in the phenotype-based assay against dexamethasone treated insulin resistant adipocytes. For example, the method can include applying actives from the insulin sensitivity assay at a concentration of 1-10 μM to the insulin resistant adipocytes for 1-4 days. The adipocytes were previously prepared for the assay by long term exposure to dexamethasone, for example, at 100 nM for about 24-48 hours.
The method can also include determining whether the compounds enhance glucose uptake in the insulin resistant adipocytes by more than 50% above that enhanced by insulin. The method can then include selecting compounds as active, if they caused 1.5 fold or more increase in glucose uptake compared to insulin treated adipocytes. Glucose uptake can be measured by any of a variety of known methods, such as measuring uptake of ^14C-labeled 2-deoxyglucose, a non metabolisable analogue of D-Glucose.
The assay was designed as in the reference, British Journal of Pharmacology, 130, 351-58, 2000, which is incorporated herein by reference for disclosure of the assay.
The solution of test compound (10 μM/mL) was prepared in DMSO.
Rosiglitazone (0.1 μM in DMSO) was used as standard.
Differentiation into adipocytes was induced by known methods as described below. (J. Biol. Chem., 260, 2646-2652, 1985, which is incorporated herein by reference for disclosure of the induction). […]

3T3 L1 fibroblasts = experiment: Adipogenesis assay (phenotype-based primary screen); type: cell-based, mouse; settings: test compound 20 μg/ml plus 5 μg/ml insulin, Oil red O stained adipocytes after 8 days, FIG. 1
Description: The phenotype-based assay used for screening the test compounds in the first screening step is an adipogenesis assay. Any of a variety of adipogenesis assays can be employed. Suitable adipogenesis assays can employ fibroblasts 3T3-L1, which can be derived from mouse and insulin, for example, of either human, porcine or bovine origin. The test compounds can be dissolved at a suitable concentration (e.g., 20 μg/ml) in a suitable solvent such as DMSO. Fibroblasts can be grown in 96-well plates containing sufficient cells, for example 5×10^4 cells/well, that are cultured in nutrient medium along with 5 μg/ml of insulin. After 3 days of incubation in CO2 incubators at 37° C., the nutrient medium with compounds is removed and fresh medium is exposed to the cells. After 8 days, the ability of compounds to potentiate insulin effect on transformation into fat filled cells, adipocytes, was assessed by observing under an inverted microscope. The lipid droplets are stained with Oil red O and percentage of stained cells is determined (e.g., estimated).
Compounds that caused the formation of adipocytes by more than 5 times the vehicle are termed as actives.
The assay was designed as in the reference J. Bio. […]
At the end of 8 days, the number of fat filled adipocytes formed in each well was assessed by observing under microscope. […]

| SMILES | % of Rosiglitazone (comparison with Rosiglitazone) ([1]; Rosiglitazone 0.1 μM standard itself) | adipogenesis, fold more than vehicle (3T3 L1 fibroblasts) | fold increase in glucose uptake [1] |
| --- | --- | --- | --- |
| CN(CCOc1ccc(CC2SC(=O)NC2=O)cc1)c1ccccn1 (centres unmarked) [Rosiglitazone, reference compound] | 100% | – | – |
| COC(=O)C(Cc1ccc(OCCN(C)C(=O)OC(C)(C)C)cc1)(OC)C(=O)OC [Compound 1, 2-{4-[2-(tert-Butoxycarbonyl-methyl-amino)-ethoxy]-benzyl}-2-methoxy-malonic acid dimethyl ether] | – | > 5 fold | > 1.5 fold |
| COc1ccc(S(=O)(=O)Nc2cnc(Oc3cnc4ccccc4c3)c(Cl)c2)cc1 [Compound 8, N-[5-Chloro-6-(quinolin-3-yloxy)-pyridine-3-yl]-4-methoxy-benzene sulfonamide] | – | > 5 fold | > 1.5 fold |
